# Measurements taken from US5733877A, “Pharmaceutical composition containing biologically active peptide or protein” (Sanwa Kagaku Kenkyusho Co., Ltd., priority 1994, dated 1998).
# Part of at least one peptide drawing is inferred or uncertain, most often the ends.
# Experiments:
# [1] = Adsorption ratio of peptide to microspheres in fat emulsion (ultrafiltration); format: physicochemical
# [2] = Isoelectric point of motilin analogue; format: physicochemical
compound,measurement,setting,value
"CC[C@H](C)[C@H](NC(=O)[C@@H]1CCCN1C(=O)[C@@H](NC(=O)[C@@H](N)Cc1ccccc1)C(C)C)C(=O)N[C@@H](Cc1ccccc1)C(=O)N[C@H](C(=O)N[C@@H](Cc1ccc(O)cc1)C(=O)NCC(=O)N[C@@H](CCC(=O)O)C(=O)N[C@@H](CC(C)C)C(=O)N[C@@H](CCC(N)=O)C(=O)N[C@@H](CCCNC(=N)N)C(=O)N[C@@H](CC(C)C)C(=O)N[C@@H](CCC(N)=O)C(=O)N[C@@H](CCC(=O)O)C(=O)N[C@@H](CCCCN)C(=O)N[C@@H](CCC(=O)O)C(=O)N[C@@H](CCCNC(=N)N)C(=O)N[C@@H](CC(N)=O)C(=O)N[C@@H](CCCCN)C(=O)NCC(=O)N[C@@H](CCC(N)=O)C(=O)N[C@@H](CCO)C(=O)O)[C@@H](C)O [d, [Leu^13]-motilin-homoserine]",adsorption to microspheres in the fat emulsion as function of pH,"[1]; pH 3-9.5, ion intensity 0.308, 0.1 fat emulsion, 100 μg/ml, pH below isoelectric point and emulsion negatively charged (FIGS. 1, 2)",good adsorption
same,Adsorption ratio (%),"[1]; peptide 100 μg/ml, 0.1% squalane fat emulsion of Example 2, pH 7, ion intensity 0.308",87.3%
same,isoelectric point,[2],8.6 pH
